± gives the standard deviation of the averaged measurements. Repeats in this data set agree poorly, so a single value says little.
Legend:
XL888 [1] = compound: T1, CC[C@@H](C)Nc1cc(C(=O)N[C@H]2C[C@H]3CC[C@@H](C2)N3c2ccc(C(=O)C3CC3)cn2)c(C)cc1C(N)=O [XL888]; test: phosphopeptide melting temperature shift (XL888 minus DMSO); higher = stabilised by drug treatment; details: 100 µM; treatment time 2 h; layout: intact cells; SK-Mel 28
Protocol: (§1)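 Phospho-TPP in intact SK-Mel 28 cells treated with 100 uM XL888 or DMSO for 2 h, heated at 10 temperatures (37-67 C) for 3 min, soluble fraction TMT10plex-labelled and TiO2 phospho-enriched. Melting curves were fitted per phosphopeptide; the value is the melting point difference (drug minus vehicle) in each of two biological replicates.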

Amino acid sequences for entries named in this document (tags omitted). A change or cut given only in a name is not applied to a line headed by its entry.
UniProt Q9P2E9: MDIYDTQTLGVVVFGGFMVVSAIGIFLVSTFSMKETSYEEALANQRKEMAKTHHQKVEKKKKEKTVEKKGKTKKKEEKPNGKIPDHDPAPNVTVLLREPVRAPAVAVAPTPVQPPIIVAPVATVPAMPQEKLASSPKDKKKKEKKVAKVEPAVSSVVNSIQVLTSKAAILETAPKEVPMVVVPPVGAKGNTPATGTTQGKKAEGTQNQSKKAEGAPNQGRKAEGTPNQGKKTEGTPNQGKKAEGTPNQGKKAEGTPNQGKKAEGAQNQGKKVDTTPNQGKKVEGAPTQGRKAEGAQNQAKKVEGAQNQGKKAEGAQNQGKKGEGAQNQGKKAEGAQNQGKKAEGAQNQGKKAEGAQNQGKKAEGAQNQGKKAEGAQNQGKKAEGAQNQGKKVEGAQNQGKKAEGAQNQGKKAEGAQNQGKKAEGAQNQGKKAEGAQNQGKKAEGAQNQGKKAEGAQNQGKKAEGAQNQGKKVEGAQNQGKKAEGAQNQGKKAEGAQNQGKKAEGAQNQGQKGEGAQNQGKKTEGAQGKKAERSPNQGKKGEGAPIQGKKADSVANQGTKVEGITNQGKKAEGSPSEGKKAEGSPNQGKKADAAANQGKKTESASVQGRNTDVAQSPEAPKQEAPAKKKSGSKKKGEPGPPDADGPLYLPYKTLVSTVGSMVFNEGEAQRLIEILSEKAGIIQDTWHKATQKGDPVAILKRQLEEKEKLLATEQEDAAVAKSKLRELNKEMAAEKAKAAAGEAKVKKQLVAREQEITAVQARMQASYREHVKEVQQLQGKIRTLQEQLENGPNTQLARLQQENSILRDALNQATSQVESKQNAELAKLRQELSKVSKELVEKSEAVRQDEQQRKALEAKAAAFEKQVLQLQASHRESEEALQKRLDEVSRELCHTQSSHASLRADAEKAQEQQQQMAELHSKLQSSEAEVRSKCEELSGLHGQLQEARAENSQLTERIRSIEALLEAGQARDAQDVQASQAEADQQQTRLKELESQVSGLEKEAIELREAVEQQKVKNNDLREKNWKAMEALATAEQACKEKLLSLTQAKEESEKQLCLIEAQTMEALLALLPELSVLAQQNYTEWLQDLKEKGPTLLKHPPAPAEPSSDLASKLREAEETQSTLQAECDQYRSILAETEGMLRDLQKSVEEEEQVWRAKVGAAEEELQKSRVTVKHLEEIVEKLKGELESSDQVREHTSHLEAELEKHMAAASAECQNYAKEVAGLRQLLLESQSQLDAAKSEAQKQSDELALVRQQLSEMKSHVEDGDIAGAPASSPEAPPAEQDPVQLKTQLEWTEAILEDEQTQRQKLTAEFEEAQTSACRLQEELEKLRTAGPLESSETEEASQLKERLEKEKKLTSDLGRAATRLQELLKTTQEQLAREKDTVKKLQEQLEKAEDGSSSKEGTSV
UniProt Q01082, whole entry, looked up: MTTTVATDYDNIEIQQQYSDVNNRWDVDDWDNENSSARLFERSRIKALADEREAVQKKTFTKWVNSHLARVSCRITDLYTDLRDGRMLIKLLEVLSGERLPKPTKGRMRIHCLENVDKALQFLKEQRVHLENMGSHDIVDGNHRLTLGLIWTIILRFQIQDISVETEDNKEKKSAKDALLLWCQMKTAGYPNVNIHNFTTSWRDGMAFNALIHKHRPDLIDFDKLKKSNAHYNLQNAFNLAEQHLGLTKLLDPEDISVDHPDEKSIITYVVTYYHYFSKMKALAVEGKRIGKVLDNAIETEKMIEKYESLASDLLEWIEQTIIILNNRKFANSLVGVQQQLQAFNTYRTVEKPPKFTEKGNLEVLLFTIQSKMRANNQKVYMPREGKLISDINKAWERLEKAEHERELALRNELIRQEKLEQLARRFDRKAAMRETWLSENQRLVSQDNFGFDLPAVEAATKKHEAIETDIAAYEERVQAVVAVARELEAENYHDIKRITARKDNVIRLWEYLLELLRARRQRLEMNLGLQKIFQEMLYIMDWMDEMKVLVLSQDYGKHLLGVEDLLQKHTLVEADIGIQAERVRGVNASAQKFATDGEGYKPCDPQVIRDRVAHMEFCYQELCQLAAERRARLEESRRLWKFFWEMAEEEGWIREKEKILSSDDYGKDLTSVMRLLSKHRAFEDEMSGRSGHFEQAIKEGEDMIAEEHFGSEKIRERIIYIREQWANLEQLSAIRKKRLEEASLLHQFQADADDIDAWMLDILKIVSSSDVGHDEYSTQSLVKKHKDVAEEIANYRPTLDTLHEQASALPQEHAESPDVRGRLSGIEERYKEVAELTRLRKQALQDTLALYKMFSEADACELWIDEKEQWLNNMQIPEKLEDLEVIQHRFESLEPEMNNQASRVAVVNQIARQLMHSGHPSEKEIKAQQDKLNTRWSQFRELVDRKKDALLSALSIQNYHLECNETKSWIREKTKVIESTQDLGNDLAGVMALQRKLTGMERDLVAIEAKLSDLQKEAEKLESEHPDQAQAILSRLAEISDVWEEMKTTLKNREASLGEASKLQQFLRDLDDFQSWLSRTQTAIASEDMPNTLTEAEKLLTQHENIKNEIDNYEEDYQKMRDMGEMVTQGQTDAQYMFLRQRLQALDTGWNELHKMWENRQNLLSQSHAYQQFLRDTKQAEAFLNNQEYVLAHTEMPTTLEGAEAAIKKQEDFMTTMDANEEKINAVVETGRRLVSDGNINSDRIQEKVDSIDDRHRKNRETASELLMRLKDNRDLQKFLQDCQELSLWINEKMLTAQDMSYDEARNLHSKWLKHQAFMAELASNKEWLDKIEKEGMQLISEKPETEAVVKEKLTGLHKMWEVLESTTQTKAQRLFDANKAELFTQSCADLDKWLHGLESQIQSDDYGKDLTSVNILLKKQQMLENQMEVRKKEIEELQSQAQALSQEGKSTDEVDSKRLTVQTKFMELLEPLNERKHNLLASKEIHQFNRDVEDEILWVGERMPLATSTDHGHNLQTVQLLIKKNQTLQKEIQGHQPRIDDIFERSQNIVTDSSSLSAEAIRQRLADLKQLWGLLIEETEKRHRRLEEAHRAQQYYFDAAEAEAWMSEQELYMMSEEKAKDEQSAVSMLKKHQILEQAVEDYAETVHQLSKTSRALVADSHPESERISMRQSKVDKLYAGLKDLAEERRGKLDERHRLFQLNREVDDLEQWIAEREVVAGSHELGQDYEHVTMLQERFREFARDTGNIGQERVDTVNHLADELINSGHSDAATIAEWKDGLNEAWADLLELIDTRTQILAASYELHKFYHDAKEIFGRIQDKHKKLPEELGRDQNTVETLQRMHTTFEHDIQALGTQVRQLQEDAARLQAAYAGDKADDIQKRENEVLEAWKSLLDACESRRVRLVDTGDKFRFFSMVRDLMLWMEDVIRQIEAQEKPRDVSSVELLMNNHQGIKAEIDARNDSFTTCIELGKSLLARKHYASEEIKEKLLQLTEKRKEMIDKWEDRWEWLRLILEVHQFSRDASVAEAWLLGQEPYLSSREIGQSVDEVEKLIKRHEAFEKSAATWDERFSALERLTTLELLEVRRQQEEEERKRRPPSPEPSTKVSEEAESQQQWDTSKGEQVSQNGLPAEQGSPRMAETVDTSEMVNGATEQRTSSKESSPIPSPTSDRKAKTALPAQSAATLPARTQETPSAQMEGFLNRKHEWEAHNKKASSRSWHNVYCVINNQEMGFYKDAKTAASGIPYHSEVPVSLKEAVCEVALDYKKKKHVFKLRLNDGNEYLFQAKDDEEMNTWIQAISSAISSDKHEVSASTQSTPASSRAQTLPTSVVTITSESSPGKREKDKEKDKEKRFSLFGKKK
UniProt Q9UQ35: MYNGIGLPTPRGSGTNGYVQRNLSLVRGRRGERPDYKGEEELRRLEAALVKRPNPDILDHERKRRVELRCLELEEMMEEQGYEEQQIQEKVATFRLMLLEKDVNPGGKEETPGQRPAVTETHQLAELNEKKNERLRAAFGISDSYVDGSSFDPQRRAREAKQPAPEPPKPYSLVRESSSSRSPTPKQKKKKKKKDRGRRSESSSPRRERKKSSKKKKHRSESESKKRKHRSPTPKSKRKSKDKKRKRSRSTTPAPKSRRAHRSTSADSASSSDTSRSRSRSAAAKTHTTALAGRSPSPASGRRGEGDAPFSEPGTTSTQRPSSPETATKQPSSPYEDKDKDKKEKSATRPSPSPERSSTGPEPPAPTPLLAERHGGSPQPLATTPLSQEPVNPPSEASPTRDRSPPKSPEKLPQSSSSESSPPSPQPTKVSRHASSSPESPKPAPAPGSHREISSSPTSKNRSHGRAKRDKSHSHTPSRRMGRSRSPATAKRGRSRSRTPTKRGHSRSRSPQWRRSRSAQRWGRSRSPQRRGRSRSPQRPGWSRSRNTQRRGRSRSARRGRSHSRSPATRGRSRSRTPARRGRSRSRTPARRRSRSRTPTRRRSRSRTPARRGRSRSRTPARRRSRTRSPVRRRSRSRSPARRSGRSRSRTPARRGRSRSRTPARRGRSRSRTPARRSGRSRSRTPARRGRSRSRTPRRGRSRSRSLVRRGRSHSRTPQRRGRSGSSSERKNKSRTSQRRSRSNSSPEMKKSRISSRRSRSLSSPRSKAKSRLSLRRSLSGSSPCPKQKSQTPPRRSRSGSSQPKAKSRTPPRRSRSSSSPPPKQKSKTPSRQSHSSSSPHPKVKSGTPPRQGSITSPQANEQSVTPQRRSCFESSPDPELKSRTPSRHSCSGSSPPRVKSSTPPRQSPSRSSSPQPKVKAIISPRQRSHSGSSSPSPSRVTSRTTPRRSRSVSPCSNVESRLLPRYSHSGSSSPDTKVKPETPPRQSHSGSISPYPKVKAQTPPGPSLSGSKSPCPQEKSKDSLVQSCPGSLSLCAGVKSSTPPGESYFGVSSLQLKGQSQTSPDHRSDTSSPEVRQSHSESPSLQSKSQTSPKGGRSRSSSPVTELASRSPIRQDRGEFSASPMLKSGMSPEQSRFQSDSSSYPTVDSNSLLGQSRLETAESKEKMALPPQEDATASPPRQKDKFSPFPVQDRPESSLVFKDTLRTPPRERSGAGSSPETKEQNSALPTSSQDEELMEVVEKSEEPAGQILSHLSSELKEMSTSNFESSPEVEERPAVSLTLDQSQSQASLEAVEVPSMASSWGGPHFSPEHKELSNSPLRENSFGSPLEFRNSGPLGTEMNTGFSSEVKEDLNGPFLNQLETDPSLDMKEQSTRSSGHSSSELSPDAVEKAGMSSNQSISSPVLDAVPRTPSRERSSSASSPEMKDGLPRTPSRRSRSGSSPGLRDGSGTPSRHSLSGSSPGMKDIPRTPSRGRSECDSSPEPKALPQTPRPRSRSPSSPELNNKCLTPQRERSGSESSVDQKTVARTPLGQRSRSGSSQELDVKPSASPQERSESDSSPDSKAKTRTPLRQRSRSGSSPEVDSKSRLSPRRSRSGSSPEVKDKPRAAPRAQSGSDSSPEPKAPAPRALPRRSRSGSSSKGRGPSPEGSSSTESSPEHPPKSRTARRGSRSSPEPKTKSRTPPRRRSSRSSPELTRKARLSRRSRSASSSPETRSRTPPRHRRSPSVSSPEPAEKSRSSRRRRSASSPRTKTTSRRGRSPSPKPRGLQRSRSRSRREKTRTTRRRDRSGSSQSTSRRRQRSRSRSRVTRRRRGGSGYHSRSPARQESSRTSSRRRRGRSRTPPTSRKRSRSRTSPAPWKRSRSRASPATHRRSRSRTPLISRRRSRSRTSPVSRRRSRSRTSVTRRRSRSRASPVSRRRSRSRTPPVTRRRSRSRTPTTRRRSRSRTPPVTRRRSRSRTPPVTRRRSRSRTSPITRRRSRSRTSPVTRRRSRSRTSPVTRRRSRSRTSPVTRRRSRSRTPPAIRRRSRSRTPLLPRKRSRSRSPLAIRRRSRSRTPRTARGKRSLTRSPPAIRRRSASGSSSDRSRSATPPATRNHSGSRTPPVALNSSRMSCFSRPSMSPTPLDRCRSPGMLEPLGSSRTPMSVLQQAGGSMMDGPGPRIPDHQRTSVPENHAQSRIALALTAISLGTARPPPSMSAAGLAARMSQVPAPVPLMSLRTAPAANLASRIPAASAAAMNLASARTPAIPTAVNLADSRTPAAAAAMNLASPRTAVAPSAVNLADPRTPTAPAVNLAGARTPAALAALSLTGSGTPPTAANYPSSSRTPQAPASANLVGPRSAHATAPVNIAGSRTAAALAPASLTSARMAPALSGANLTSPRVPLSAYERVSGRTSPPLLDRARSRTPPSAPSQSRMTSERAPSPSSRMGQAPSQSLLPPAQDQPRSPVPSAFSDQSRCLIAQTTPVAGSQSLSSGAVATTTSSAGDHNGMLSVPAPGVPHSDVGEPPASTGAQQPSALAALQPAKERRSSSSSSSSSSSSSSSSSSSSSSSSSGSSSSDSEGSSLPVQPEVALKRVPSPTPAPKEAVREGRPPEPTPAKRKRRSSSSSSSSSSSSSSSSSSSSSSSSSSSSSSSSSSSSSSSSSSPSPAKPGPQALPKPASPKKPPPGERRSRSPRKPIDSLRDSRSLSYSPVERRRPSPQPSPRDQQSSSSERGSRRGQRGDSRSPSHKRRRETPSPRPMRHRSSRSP

XL888 [2] = compound: T1, XL888; test: as above; details: 100 µM; treatment time 2 h; layout: intact cells; SK-Mel 24
Protocol: as §1, with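 “24” for “28”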

PSIP1 phosphosite_122 (phosphosite position: 122) (UniProt O75475)
phosphopeptide melting temperature shift (XL888 [1]): -1.15 ± 0.46 °C | phosphopeptide melting temperature shift (XL888 [2]): 0.483 ± 0.094 °C

RAD9A phosphosite_328 (phosphosite position: 328) (UniProt Q99638)
phosphopeptide melting temperature shift (XL888 [1]): 0.594 °C | phosphopeptide melting temperature shift (XL888 [2]): -0.707 °C

RBM17 phosphosite_155 (phosphosite position: 155) (UniProt Q96I25)
phosphopeptide melting temperature shift (XL888 [1]): -0.0209 ± 0.13 °C | phosphopeptide melting temperature shift (XL888 [2]): 0.991 °C

RBM33 phosphosite_205 (phosphosite position: 205) (UniProt Q96EV2)
phosphopeptide melting temperature shift (XL888 [1]): -0.62 °C | phosphopeptide melting temperature shift (XL888 [2]): 0.506 °C

RNF20 phosphosite_138 (phosphosite position: 138) (UniProt Q5VTR2)
phosphopeptide melting temperature shift (XL888 [1]): 2.323 ± 0.005 °C | phosphopeptide melting temperature shift (XL888 [2]): 2.6 °C

ROCK1 phosphosite_1105 (phosphosite position: 1105) (UniProt Q13464)
phosphopeptide melting temperature shift (XL888 [1]): 1.36 ± 0.49 °C | phosphopeptide melting temperature shift (XL888 [2]): 2.64 °C

RPLP0 phosphosite_304 (phosphosite position: 304) (UniProt P05388)
phosphopeptide melting temperature shift (XL888 [1]): 0.928 ± 0.91 °C | phosphopeptide melting temperature shift (XL888 [2]): 6.33 °C

RPLP0 phosphosite_307 (phosphosite position: 307) (UniProt P05388)
phosphopeptide melting temperature shift (XL888 [1]): -0.113 ± 0.26 °C | phosphopeptide melting temperature shift (XL888 [2]): -3.08 ± 1 °C

RPP25 phosphosite_162 (phosphosite position: 162) (UniProt Q9BUL9)
phosphopeptide melting temperature shift (XL888 [1]): 0.533 °C | phosphopeptide melting temperature shift (XL888 [2]): 0.976 °C

RPRD1B phosphosite_134 (phosphosite position: 134) (UniProt Q9NQG5)
phosphopeptide melting temperature shift (XL888 [1]): 0.807 ± 0.19 °C | phosphopeptide melting temperature shift (XL888 [2]): 0.294 ± 0.29 °C

RPS3 phosphosite_221 (phosphosite position: 221) (UniProt P23396)
phosphopeptide melting temperature shift (XL888 [1]): -0.697 ± 0.31 °C | phosphopeptide melting temperature shift (XL888 [2]): -1.96 ± 0.15 °C

RRBP1 phosphosite_533 (phosphosite position: 533) (UniProt Q9P2E9)
phosphopeptide melting temperature shift (XL888 [1]): -0.0725 ± 0.14 °C | phosphopeptide melting temperature shift (XL888 [2]): 0.55 °C

RRBP1 phosphosite_573 (phosphosite position: 573) (UniProt Q9P2E9)
phosphopeptide melting temperature shift (XL888 [1]): -1.2 °C | phosphopeptide melting temperature shift (XL888 [2]): -0.36 °C

RRBP1 phosphosite_583 (phosphosite position: 583) (UniProt Q9P2E9)
phosphopeptide melting temperature shift (XL888 [1]): 0.768 ± 0.51 °C | phosphopeptide melting temperature shift (XL888 [2]): 0.781 °C

RRBP1 phosphosite_1276 (phosphosite position: 1276) (UniProt Q9P2E9)
phosphopeptide melting temperature shift (XL888 [1]): 1.88 ± 1.8 °C | phosphopeptide melting temperature shift (XL888 [2]): 0.273 °C

RRBP1 phosphosite_1277 (phosphosite position: 1277) (UniProt Q9P2E9)
phosphopeptide melting temperature shift (XL888 [1]): 2.5 ± 1.1 °C | phosphopeptide melting temperature shift (XL888 [2]): 0.763 °C

RSL1D1 phosphosite_361 (phosphosite position: 361) (UniProt O76021)
phosphopeptide melting temperature shift (XL888 [1]): -0.211 ± 0.64 °C | phosphopeptide melting temperature shift (XL888 [2]): -0.237 °C

RTF1 phosphosite_79 (phosphosite position: 79) (UniProt Q92541)
phosphopeptide melting temperature shift (XL888 [1]): 0.544 ± 0.5 °C | phosphopeptide melting temperature shift (XL888 [2]): 0.773 ± 0.39 °C

SAAL1 phosphosite_56 (phosphosite position: 56) (UniProt Q96ER3)
phosphopeptide melting temperature shift (XL888 [1]): 2.32 °C | phosphopeptide melting temperature shift (XL888 [2]): 3.57 °C

SASH1 phosphosite_486 (phosphosite position: 486) (UniProt O94885)
phosphopeptide melting temperature shift (XL888 [1]): 1.69 ± 0.97 °C | phosphopeptide melting temperature shift (XL888 [2]): 2.82 °C

SET phosphosite_7 (phosphosite position: 7) (UniProt Q01105)
phosphopeptide melting temperature shift (XL888 [1]): 0.0632 ± 0.03 °C | phosphopeptide melting temperature shift (XL888 [2]): 1.29 ± 0.51 °C

SF3A1 phosphosite_329 (phosphosite position: 329) (UniProt Q15459)
phosphopeptide melting temperature shift (XL888 [1]): 1.52 ± 0.32 °C | phosphopeptide melting temperature shift (XL888 [2]): 1.26 °C

SGTA phosphosite_77 (phosphosite position: 77) (UniProt O43765)
phosphopeptide melting temperature shift (XL888 [1]): 2.3 ± 1.2 °C | phosphopeptide melting temperature shift (XL888 [2]): -0.418 °C

SGTA phosphosite_81 (phosphosite position: 81) (UniProt O43765)
phosphopeptide melting temperature shift (XL888 [1]): 2.69 ± 1 °C | phosphopeptide melting temperature shift (XL888 [2]): 0.424 °C

SKIV2L phosphosite_256 (phosphosite position: 256) (UniProt Q15477)
phosphopeptide melting temperature shift (XL888 [1]): 0.45 ± 0.15 °C | phosphopeptide melting temperature shift (XL888 [2]): 0.151 ± 0.067 °C

SLC4A1AP phosphosite_466 (phosphosite position: 466) (UniProt Q9BWU0)
phosphopeptide melting temperature shift (XL888 [1]): 1.62 °C | phosphopeptide melting temperature shift (XL888 [2]): 1.33 °C

SLC7A6OS phosphosite_308 (phosphosite position: 308) (UniProt Q96CW6)
phosphopeptide melting temperature shift (XL888 [1]): 0.62 ± 1.5 °C | phosphopeptide melting temperature shift (XL888 [2]): 1.54 °C

SLU7 phosphosite_235 (phosphosite position: 235) (UniProt O95391)
phosphopeptide melting temperature shift (XL888 [1]): 3.85 ± 0.34 °C | phosphopeptide melting temperature shift (XL888 [2]): 3.65 °C

SNAPIN phosphosite_133 (phosphosite position: 133) (UniProt O95295)
phosphopeptide melting temperature shift (XL888 [1]): -0.221 °C | phosphopeptide melting temperature shift (XL888 [2]): 0.818 °C

SNRK phosphosite_569 (phosphosite position: 569) (UniProt Q9NRH2)
phosphopeptide melting temperature shift (XL888 [1]): 0.525 ± 1.5 °C | phosphopeptide melting temperature shift (XL888 [2]): 1.1 °C

SNRNP70 phosphosite_226 (phosphosite position: 226) (UniProt P08621)
phosphopeptide melting temperature shift (XL888 [1]): -2.18 °C | phosphopeptide melting temperature shift (XL888 [2]): -2.16 °C

SNTB1 phosphosite_219 (phosphosite position: 219) (UniProt Q13884)
phosphopeptide melting temperature shift (XL888 [1]): 3.08 °C | phosphopeptide melting temperature shift (XL888 [2]): 0.527 °C

SNW1 phosphosite_224 (phosphosite position: 224) (UniProt Q13573)
phosphopeptide melting temperature shift (XL888 [1]): -0.293 ± 0.81 °C | phosphopeptide melting temperature shift (XL888 [2]): 0.803 ± 1.8 °C

SOX13 phosphosite_335 (phosphosite position: 335) (UniProt Q9UN79)
phosphopeptide melting temperature shift (XL888 [1]): 1.92 ± 1.8 °C | phosphopeptide melting temperature shift (XL888 [2]): 1.71 °C

SPTBN1 phosphosite_2102 (phosphosite position: 2102) (UniProt Q01082)
phosphopeptide melting temperature shift (XL888 [1]): 1.54 ± 0.53 °C | phosphopeptide melting temperature shift (XL888 [2]): 0.754 ± 0.11 °C

SPTBN1 phosphosite_2165 (phosphosite position: 2165) (UniProt Q01082)
phosphopeptide melting temperature shift (XL888 [1]): 1.26 ± 0.46 °C | phosphopeptide melting temperature shift (XL888 [2]): 0.426 ± 0.71 °C

SPTBN1 phosphosite_2320 (phosphosite position: 2320) (UniProt Q01082)
phosphopeptide melting temperature shift (XL888 [1]): 3.09 ± 1.6 °C | phosphopeptide melting temperature shift (XL888 [2]): 1.02 °C

SQSTM1 phosphosite_269 (phosphosite position: 269) (UniProt Q13501)
phosphopeptide melting temperature shift (XL888 [1]): 0.814 ± 1.3 °C | phosphopeptide melting temperature shift (XL888 [2]): 0.253 ± 0.55 °C

SQSTM1 phosphosite_272 (phosphosite position: 272) (UniProt Q13501)
phosphopeptide melting temperature shift (XL888 [1]): -0.705 ± 0.75 °C | phosphopeptide melting temperature shift (XL888 [2]): -0.724 °C

SRC phosphosite_17 (phosphosite position: 17) (UniProt P12931)
phosphopeptide melting temperature shift (XL888 [1]): -1.85 ± 0.7 °C | phosphopeptide melting temperature shift (XL888 [2]): -1.02 °C

SRFBP1 phosphosite_264 (phosphosite position: 264) (UniProt Q8NEF9)
phosphopeptide melting temperature shift (XL888 [1]): 2.11 °C | phosphopeptide melting temperature shift (XL888 [2]): 1.02 °C

SRRM1 phosphosite_220 (phosphosite position: 220) (UniProt Q8IYB3)
phosphopeptide melting temperature shift (XL888 [1]): 1.01 ± 0.6 °C | phosphopeptide melting temperature shift (XL888 [2]): -0.346 ± 0.2 °C

SRRM1 phosphosite_450 (phosphosite position: 450) (UniProt Q8IYB3)
phosphopeptide melting temperature shift (XL888 [1]): 0.00242 ± 0.2 °C | phosphopeptide melting temperature shift (XL888 [2]): -0.164 ± 0.43 °C

SRRM1 phosphosite_675 (phosphosite position: 675) (UniProt Q8IYB3)
phosphopeptide melting temperature shift (XL888 [1]): 0.732 °C | phosphopeptide melting temperature shift (XL888 [2]): 1.68 °C

SRRM1 phosphosite_874 (phosphosite position: 874) (UniProt Q8IYB3)
phosphopeptide melting temperature shift (XL888 [1]): -0.285 ± 0.48 °C | phosphopeptide melting temperature shift (XL888 [2]): -0.947 °C

SRRM2 phosphosite_994 (phosphosite position: 994) (UniProt Q9UQ35)
phosphopeptide melting temperature shift (XL888 [1]): 3.56 ± 1.1 °C | phosphopeptide melting temperature shift (XL888 [2]): 3.57 °C

SRRM2 phosphosite_1003 (phosphosite position: 1003) (UniProt Q9UQ35)
phosphopeptide melting temperature shift (XL888 [1]): 12.7 °C | phosphopeptide melting temperature shift (XL888 [2]): 3.46 °C

SRRM2 phosphosite_1083 (phosphosite position: 1083) (UniProt Q9UQ35)
phosphopeptide melting temperature shift (XL888 [1]): 2.61 ± 1.3 °C | phosphopeptide melting temperature shift (XL888 [2]): 2.45 °C

SRRM2 phosphosite_1320 (phosphosite position: 1320) (UniProt Q9UQ35)
phosphopeptide melting temperature shift (XL888 [1]): 2.48 ± 0.72 °C | phosphopeptide melting temperature shift (XL888 [2]): 0.231 ± 0.37 °C

SRRM2 phosphosite_1492 (phosphosite position: 1492) (UniProt Q9UQ35)
phosphopeptide melting temperature shift (XL888 [1]): 0.284 °C | phosphopeptide melting temperature shift (XL888 [2]): 2.11 ± 1.3 °C

SRRM2 phosphosite_2409 (phosphosite position: 2409) (UniProt Q9UQ35)
phosphopeptide melting temperature shift (XL888 [1]): -1.44 °C | phosphopeptide melting temperature shift (XL888 [2]): 1.33 ± 0.22 °C

SRRM2 phosphosite_2702 (phosphosite position: 2702) (UniProt Q9UQ35)
phosphopeptide melting temperature shift (XL888 [1]): 2.46 °C | phosphopeptide melting temperature shift (XL888 [2]): 3.49 °C

Source: the supplement of paper PMC5836539
